Results published in paper PMC5353758.
No constants are given. Whether binding was seen depends on the method and setting. Binding seen in cells or lysates may run through a third protein. Binding calls can cover weak binding; strength is not graded here.

Target: myosin phosphatase target subunit-1 (MYPT1), endogenous in BPAEC (bovine (endogenous in BPAEC))
Assay: proximity ligation; Duolink PLA in fixed, permeabilised BPAECs; mouse anti-eNOS and rabbit anti-MYPT1 1-296; control with secondary antibodies only

B1: endothelial nitric oxide synthase (eNOS), endogenous in BPAEC (protein, UniProt P29473 1-1205)
chain: MGNLKSVGQEPGPPCGLGLGLGLGLCGKQGPASPAPEPSRAPAPATPHAPDHSPAPNSPTLTRPPEGPKFPRVKNWELGSITYDTLCAQSQQDGPCTPRCCLGSLVLPRKLQTRPSPGPPPAEQLLSQARDFINQYYSSIKRSGSQAHEERLQEVEAEVASTGTYHLRESELVFGAKQAWRNAPRCVGRIQWGKLQVFDARDCSSAQEMFTYICNHIKYATNRGNLRSAITVFPQRAPGRGDFRIWNSQLVRYAGYRQQDGSVRGDPANVEITELCIQHGWTPGNGRFDVLPLLLQAPDEAPELFVLPPELVLEVPLEHPTLEWFAALGLRWYALPAVSNMLLEIGGLEFSAAPFSGWYMSTEIGTRNLCDPHRYNILEDVAVCMDLDTRTTSSLWKDKAAVEINLAVLHSFQLAKVTIVDHHAATVSFMKHLDNEQKARGGCPADWAWIVPPISGSLTPVFHQEMVNYILSPAFRYQPDPWKGSATKGAGITRKKTFKEVANAVKISASLMGTLMAKRVKATILYASETGRAQSYAQQLGRLFRKAFDPRVLCMDEYDVVSLEHEALVLVVTSTFGNGDPPENGESFAAALMEMSGPYNSSPRPEQHKSYKIRFNSVSCSDPLVSSWRRKRKESSNTDSAGALGTLRFCVFGLGSRAYPHFCAFARAVDTRLEELGGERLLQLGQGDELCGQEEAFRGWAKAAFQASCETFCVGEEAKAAAQDIFSPKRSWKRQRYRLSTQAEGLQLLPGLIHVHRRKMFQATVLSVENLQSSKSTRATILVRLDTAGQEGLQYQPGDHIGICPPNRPGLVEALLSRVEDPPPPTESVAVEQLEKGSPGGPPPSWVRDPRLPPCTLRQALTFFLDITSPPSPRLLRLLSTLAEEPSEQQELETLSQDPRRYEEWKWFRCPTLLEVLEQFPSVALPAPLLLTQLPLLQPRYYSVSSAPNAHPGEVHLTVAVLAYRTQDGLGPLHYGVCSTWLSQLKTGDPVPCFIRGAPSFRLPPDPYVPCILVGPGTGIAPFRGFWQERLHDIESKGLQPAPMTLVFGCRCSQLDHLYRDEVQDAQERGVFGRVLTAFSREPDSPKTYVQDILRTELAAEVHRVLCLERGHMFVCGDVTMATSVLQTVQRILATEGDMELDEAGDVIGVLRDQQRYHEDIFGLTLRTQEVTSRIRTQSFSLQERHLRGAVPWAFDPPGPDTPGP
binding: binds
